Data as given in article PMC6294630.
Results are given in words; binding and its absence hold for the method and conditions named.

Molecular target: Gal-13 variant C136SC138S (human) (UniProt Q9UHV8)
Assay: SEC; gel filtration; conditions not given; both purified

binding: no binding
B1: Gal-13 variant C136SC138S (protein, UniProt Q9UHV8 1-139)
chain: MSSLPVPYKLPVSLSVGSCVIIKGTPIHSFINDPQLQVDFYTDMDEDSDIAFRFRVHFGNHVVMNRREFGIWMLEETTDYVPFEDGKQFELCIYVHYNEYEIKVNGIRIYGFVHRIPPSFVKMVQVSRDISLTSVSVSN
